Measurements as given in paper PMC4245968.
These are yes or no findings as the source states them, for the method shown. Binding seen in cells or lysates may run through a third protein. Some results given as binding are weak or reduced against the parent protein; the word gives no strength. For part of these data: Tags and fused reporters may be left off the sequences shown.

Amino acid sequences for entries named in this document (tags omitted).
UniProt E9Q1P8: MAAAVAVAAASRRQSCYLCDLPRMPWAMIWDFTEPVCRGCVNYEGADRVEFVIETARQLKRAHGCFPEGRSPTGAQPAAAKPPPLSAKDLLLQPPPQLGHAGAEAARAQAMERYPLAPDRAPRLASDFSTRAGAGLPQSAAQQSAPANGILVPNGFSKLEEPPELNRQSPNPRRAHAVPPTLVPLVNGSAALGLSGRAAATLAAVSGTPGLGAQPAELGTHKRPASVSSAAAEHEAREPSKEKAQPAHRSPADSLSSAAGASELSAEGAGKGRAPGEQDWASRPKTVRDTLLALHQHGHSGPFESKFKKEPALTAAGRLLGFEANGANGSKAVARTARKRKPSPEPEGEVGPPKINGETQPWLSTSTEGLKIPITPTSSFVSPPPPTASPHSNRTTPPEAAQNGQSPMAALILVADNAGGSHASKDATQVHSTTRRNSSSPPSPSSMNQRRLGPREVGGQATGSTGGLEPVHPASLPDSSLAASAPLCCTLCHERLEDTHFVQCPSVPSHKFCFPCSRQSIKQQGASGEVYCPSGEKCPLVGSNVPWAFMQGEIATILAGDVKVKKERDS

T1: bio-tagged Ldb1 (UniProt P70662)
T1 sequence: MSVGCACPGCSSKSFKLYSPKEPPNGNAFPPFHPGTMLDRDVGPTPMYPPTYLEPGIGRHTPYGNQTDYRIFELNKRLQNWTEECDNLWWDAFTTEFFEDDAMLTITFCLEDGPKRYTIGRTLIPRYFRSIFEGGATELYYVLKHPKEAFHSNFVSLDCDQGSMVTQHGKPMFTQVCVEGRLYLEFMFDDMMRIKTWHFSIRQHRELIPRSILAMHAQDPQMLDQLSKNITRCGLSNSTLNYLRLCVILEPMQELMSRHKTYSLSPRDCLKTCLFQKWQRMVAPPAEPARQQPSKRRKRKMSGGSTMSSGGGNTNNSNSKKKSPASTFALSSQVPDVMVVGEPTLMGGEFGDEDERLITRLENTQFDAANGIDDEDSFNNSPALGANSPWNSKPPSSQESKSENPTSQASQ


Columns and labels:
bio-tagged Ldb1 = biological target: T1, bio-tagged Ldb1; test: co-IP; streptavidin-IP: streptavidin-coated magnetic beads (Dynabeads M-280) on 1 mg nuclear extract diluted to 150 mM KCl, with 100 U benzonase, 3 h at room temperature, five washes with Heng150 (0.2% NP-40, 150 mM KCl); Western blot; MEL/BirA cells as control
[1] = biological target: 3×Flag-Bio(NLS)-Irf2bp2 (mouse (cDNA from MEL cells)) (UniProt E9Q1P8); test: co-IP; Flag-IP: 10 μg anti-Flag antibody (M2) and protein G magnetic beads on nuclear extract, 4 h at room temperature, otherwise as the streptavidin-IP; Western blot; MEL/BirA cells as control
[2] = biological target: 3×Flag-Bio(NLS)-Irf2bp2 (mouse (cDNA from MEL cells)) (UniProt E9Q1P8); test: co-IP; streptavidin-IP: streptavidin-coated magnetic beads (Dynabeads M-280) on 1 mg nuclear extract diluted to 150 mM KCl, with 100 U benzonase, 3 h at room temperature, five washes with Heng150 (0.2% NP-40, 150 mM KCl); Western blot; MEL/BirA cells as control

binding (bio-tagged Ldb1)	binding [1]	binding [2]	Binder
binds			Fli-1 (protein, UniProt P26323 1-452) MDGTIKEALSVVSDDQSLFDSAYGAAAHLPKADMTASGSPDYGQPHKINPLPPQQEWINQPVRVNVKREYDHMNGSRESPVDCSVSKCNKLVGGGEANPMNYNSYMDEKNGPPPPNMTTNERRVIVPADPTLWTQEHVRQWLEWAIKEYGLMEIDTSFFQNMDGKELCKMNKEDFLRATSAYNTEVLLSHLSYLRESSLLAYNTTSHTDQSSRLNVKEDPSYDSVRRGAWNNNMNSGLNKSPLLGGSQTMGKNTEQRPQPDPYQILGPTSSRLANPGSGQIQLWQFLLELLSDSANASCITWEGTNGEFKMTDPDEVARRWGERKSKPNMNYDKLSRALRYYYDKNIMTKVHGKRYAYKFDFHGIAQALQPHPTETSMYKYPSDISYMPSYHAHQQKVNFVPSHPSSMPVTSSSFFGAASQYWTSPTAGIYPNPSVPRHPNTHVPSHLGSYY
	binds	binds	Irf2 (protein, UniProt P23906 1-349) MPVERMRMRPWLEEQINSNTIPGLKWLNKEKKIFQIPWMHAARHGWDVEKDAPLFRNWAIHTGKHQPGIDKPDPKTWKANFRCAMNSLPDIEEVKDRSIKKGNNAFRVYRMLPLSERPSKKGKKPKTEKEERVKHIKQEPVESSLGLSNGVSGFSPEYAVLTSAIKNEVDSTVNIIVVGQSHLDSNIEDQEIVTNPPDICQVVEVTTESDDQPVSMSELYPLQISPVSSYAESETTDSVASDEENAEGRPHWRKRSIEGKQYLSNMGTRNTYLLPSMATFVTSNKPDLQVTIKEDSCPMPYNSSWPPFTDLPLPAPVTPTPSSSRPDRETRASVIKKTSDITQARVKSC
